According to the supplement of paper PMC10849652:
This is one part of the list.

By UniProt entry, the sequences of proteins in these tests, tags left out. Where a name states a change or a piece, a line headed by the entry shows the natural chain unless it says otherwise.
UniProt Q9Y490: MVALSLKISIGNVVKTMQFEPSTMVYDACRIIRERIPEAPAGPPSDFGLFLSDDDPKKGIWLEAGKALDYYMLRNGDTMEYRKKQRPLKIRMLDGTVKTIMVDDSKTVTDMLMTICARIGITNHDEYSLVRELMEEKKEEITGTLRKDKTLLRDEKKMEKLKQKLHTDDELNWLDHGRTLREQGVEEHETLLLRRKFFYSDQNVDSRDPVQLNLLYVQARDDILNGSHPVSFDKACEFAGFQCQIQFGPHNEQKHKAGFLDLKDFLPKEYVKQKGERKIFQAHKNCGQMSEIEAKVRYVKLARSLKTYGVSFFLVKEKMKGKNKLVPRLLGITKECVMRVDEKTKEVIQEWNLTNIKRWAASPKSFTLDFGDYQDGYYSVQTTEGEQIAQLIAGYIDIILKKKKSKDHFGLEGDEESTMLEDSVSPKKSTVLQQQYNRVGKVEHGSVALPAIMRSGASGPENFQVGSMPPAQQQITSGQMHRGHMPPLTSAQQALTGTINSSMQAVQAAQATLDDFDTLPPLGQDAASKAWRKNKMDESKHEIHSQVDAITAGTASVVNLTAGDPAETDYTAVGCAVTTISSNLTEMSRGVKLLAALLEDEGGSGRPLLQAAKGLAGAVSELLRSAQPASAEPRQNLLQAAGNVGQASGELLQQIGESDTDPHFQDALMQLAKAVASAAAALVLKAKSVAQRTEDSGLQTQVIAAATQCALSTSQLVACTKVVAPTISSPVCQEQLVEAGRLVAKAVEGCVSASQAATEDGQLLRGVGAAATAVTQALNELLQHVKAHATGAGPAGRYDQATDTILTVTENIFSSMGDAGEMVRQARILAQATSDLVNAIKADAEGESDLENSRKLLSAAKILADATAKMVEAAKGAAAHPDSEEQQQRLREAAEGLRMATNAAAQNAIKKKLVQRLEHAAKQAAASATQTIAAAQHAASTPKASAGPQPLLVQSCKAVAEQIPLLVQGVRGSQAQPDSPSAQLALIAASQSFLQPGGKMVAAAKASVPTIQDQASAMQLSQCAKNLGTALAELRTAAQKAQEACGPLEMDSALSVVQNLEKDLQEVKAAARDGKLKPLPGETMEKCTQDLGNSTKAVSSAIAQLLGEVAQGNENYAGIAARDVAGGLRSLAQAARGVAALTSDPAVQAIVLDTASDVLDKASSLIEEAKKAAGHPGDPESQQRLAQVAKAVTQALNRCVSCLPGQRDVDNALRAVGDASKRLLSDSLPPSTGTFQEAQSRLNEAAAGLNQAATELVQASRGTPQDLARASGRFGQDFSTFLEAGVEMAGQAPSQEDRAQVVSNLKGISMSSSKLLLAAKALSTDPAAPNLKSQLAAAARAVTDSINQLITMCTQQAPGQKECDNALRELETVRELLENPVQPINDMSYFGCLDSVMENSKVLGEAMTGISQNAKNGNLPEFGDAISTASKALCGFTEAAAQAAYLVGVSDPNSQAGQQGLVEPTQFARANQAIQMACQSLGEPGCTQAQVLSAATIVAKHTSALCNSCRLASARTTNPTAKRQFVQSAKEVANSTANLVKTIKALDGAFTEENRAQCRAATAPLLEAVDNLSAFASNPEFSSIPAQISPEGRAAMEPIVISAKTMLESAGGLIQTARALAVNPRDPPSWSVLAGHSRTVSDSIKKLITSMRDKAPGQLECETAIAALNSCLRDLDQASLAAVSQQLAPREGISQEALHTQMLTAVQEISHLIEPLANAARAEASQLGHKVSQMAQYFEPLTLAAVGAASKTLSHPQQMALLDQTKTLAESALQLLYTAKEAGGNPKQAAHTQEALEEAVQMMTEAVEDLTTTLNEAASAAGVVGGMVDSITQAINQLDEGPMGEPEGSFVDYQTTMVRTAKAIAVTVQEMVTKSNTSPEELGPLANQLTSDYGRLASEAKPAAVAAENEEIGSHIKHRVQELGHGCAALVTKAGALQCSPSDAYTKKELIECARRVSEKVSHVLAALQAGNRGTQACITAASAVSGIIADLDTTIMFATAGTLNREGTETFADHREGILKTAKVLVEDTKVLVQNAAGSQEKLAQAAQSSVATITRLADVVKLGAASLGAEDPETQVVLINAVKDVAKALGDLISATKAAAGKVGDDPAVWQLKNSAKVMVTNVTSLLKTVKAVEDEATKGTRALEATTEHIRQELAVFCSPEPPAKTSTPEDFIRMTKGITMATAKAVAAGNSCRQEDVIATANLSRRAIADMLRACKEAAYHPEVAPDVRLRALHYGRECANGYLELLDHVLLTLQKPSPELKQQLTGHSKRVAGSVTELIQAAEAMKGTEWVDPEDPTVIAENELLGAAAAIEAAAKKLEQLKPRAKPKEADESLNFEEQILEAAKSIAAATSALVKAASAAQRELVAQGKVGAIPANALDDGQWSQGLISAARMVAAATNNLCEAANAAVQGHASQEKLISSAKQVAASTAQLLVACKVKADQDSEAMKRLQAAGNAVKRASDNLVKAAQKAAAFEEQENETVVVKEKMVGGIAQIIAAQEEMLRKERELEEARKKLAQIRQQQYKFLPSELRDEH
UniProt Q9BVC6: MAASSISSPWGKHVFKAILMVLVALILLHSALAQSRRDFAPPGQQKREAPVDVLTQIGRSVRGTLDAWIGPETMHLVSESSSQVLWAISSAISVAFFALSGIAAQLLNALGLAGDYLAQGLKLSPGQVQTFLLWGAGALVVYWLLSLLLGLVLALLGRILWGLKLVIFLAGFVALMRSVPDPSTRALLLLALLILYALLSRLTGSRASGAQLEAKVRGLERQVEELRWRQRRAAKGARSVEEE
UniProt O60220: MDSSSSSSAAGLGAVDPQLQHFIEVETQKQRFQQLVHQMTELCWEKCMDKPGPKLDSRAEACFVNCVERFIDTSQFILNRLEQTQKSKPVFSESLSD
UniProt Q96MV1: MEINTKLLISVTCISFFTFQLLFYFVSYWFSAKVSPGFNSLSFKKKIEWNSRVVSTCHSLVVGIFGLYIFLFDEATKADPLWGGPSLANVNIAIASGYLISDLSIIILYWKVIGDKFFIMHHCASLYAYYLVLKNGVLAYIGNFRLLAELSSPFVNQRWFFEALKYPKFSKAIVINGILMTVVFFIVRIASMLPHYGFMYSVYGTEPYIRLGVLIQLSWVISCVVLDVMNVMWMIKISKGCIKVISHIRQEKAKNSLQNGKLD
UniProt Q8TDI8: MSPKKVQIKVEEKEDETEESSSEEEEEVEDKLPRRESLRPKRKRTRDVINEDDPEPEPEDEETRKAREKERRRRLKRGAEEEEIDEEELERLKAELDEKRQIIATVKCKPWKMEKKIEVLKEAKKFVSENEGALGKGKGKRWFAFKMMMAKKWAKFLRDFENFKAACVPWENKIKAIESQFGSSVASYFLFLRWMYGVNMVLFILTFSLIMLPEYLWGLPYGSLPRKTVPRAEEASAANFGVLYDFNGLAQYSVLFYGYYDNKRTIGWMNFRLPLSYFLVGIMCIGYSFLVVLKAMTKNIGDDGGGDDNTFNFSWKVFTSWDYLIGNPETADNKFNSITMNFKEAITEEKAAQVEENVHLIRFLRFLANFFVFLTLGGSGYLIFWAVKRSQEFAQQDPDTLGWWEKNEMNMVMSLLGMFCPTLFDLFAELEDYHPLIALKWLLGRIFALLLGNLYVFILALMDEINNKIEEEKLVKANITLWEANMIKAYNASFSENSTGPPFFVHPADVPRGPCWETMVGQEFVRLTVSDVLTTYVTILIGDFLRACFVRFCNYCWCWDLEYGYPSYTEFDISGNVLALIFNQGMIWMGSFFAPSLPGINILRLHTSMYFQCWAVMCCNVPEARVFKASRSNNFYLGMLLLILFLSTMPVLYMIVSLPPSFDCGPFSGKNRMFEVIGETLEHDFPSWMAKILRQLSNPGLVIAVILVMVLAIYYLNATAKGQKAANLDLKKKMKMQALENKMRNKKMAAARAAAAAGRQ
UniProt Q1AE95: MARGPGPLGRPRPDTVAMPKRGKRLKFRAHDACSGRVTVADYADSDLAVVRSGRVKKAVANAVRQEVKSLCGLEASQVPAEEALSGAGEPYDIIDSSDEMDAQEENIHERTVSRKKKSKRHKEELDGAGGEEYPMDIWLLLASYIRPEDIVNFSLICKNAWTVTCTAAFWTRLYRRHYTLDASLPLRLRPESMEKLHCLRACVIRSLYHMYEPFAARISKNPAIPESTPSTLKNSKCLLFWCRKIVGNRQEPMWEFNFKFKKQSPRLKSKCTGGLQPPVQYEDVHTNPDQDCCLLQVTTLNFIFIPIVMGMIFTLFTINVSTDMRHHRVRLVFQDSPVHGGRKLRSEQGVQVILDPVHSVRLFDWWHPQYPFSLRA
UniProt O14925: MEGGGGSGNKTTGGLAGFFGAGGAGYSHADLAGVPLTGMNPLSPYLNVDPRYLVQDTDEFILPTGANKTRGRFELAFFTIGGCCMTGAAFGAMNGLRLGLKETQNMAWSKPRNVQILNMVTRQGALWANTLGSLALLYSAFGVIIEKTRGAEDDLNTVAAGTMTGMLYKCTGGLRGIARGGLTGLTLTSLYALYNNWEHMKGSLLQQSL
UniProt P01033: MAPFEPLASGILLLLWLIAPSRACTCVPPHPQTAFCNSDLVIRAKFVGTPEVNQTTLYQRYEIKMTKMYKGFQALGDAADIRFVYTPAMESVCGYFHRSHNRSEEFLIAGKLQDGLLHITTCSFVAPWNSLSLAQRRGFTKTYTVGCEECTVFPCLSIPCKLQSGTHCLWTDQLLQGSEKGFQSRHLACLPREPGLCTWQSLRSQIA
UniProt Q9H0V1: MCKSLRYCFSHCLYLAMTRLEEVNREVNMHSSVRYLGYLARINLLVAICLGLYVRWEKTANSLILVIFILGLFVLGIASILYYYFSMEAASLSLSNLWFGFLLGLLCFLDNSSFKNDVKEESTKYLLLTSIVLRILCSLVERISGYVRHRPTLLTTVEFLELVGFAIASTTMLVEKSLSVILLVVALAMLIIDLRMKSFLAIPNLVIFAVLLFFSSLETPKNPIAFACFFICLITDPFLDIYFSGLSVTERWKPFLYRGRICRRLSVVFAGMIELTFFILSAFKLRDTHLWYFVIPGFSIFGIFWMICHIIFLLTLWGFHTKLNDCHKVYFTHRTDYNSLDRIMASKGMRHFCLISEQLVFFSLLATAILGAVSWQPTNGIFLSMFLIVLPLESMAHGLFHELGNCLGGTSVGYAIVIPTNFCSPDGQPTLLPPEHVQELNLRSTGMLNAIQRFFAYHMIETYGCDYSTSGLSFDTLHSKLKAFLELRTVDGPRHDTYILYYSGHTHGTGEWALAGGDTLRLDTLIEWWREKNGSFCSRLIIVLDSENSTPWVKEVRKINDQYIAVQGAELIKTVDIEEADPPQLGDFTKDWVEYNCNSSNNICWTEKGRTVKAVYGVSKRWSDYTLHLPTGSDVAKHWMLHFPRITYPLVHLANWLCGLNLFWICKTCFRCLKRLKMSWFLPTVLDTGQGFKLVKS
UniProt Q01085: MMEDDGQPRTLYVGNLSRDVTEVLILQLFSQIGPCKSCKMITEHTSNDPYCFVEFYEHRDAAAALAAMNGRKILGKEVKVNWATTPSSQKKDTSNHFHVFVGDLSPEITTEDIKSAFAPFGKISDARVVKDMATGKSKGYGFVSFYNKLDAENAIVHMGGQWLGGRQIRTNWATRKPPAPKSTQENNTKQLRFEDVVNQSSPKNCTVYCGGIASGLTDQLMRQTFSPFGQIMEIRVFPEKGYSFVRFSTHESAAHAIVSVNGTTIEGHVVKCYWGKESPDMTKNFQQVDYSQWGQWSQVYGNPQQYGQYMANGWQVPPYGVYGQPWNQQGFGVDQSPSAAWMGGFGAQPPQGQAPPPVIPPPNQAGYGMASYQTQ
UniProt Q86XR7, whole entry, looked up: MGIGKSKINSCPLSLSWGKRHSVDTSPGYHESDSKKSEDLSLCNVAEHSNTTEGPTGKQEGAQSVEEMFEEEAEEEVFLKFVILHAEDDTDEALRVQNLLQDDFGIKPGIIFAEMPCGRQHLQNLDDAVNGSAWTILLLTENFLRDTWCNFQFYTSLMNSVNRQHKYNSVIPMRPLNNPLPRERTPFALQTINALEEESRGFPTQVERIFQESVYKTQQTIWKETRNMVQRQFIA
UniProt Q8TBQ9: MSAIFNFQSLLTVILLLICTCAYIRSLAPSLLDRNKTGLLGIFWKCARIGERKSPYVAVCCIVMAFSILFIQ
UniProt Q9P2C4: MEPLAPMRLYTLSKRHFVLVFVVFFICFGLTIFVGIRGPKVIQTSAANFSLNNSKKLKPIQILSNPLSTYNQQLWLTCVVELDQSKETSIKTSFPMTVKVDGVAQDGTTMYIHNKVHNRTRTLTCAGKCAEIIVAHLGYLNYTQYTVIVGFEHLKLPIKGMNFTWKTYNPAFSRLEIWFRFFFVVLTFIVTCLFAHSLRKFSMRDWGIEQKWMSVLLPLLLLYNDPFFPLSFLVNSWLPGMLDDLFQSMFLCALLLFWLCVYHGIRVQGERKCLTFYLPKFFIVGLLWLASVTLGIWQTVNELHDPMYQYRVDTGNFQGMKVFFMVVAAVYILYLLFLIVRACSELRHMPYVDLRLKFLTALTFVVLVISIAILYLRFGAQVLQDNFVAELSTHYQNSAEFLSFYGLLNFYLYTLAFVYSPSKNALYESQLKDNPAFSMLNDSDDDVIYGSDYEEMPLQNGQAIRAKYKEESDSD

What was measured:
Test in all cases: log2 fold change, soluble protein after heating vs DMSO (PISA); higher = thermal stabilisation; K562 lysate, 10 uM; active = over 0.2 and 3.5 SD of the protein, either way, in both replicates (recomputed)
[1] = compound: NCC(=O)Nc1ccc(-n2nc(C(F)(F)F)cc2-c2ccc3c(ccc4ccccc43)c2)cc1
Procedure, shortened: (§1)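 The values are log-two fold changes in thermal stability compared with solvent controls and come from duplicates. They were obtained by TMTpro 16plex LC-MS/MS, with channel sums equalised, on the supernatant after 21,000xg for 90 min. That supernatant came from crude K562 extract at 1 mg/mL protein treated with 10 μM compound for 30 min, heated for 3 min across 48°C-58°C, pooled and brought to 0.5% NP-40 at 4°C.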

vorinostat = compound: O=C(CCCCCCC(=O)Nc1ccccc1)NO [vorinostat]
Procedure, shortened: as §1

silmitasertib = compound: O=C(O)c1ccc2c(c1)nc(Nc1cccc(Cl)c1)c1ccncc12 [silmitasertib]
Procedure, shortened: as §1

[2] = compound: O=C1NC(=O)C(c2cnc3ccccn23)=C1c1cn2c3c(cc(F)cc13)CN(C(=O)N1CCCCC1)CC2
Procedure, shortened: as §1

entospletinib = compound: c1cn2cc(-c3ccc4cn[nH]c4c3)nc(Nc3ccc(N4CCOCC4)cc3)c2n1 [entospletinib]
Procedure, shortened: as §1

Target: TLN1 (UniProt Q9Y490)
- log2 fold change [1]: inactive: -0.01
- log2 fold change (vorinostat): inactive: 0.038
- log2 fold change (silmitasertib): inactive: -0.004
- log2 fold change [2]: inactive: 0.008
- log2 fold change (entospletinib): inactive: 0.009

Target: TIPIN (UniProt Q9BVW5)
- log2 fold change [1]: inactive: 0.001
- log2 fold change (vorinostat): inactive: 0.042
- log2 fold change (silmitasertib): inactive: -0.03
- log2 fold change [2]: inactive: 0.035
- log2 fold change (entospletinib): inactive: -0.014

Target: TMEM167B (UniProt Q9NRX6)
- log2 fold change [1]: inactive: 0.019
- log2 fold change (vorinostat): inactive: 0
- log2 fold change (silmitasertib): inactive: 0.009
- log2 fold change [2]: inactive: -0.033
- log2 fold change (entospletinib): inactive: 0.031

Target: TMEM109 (UniProt Q9BVC6)
- log2 fold change [1]: inactive: -0.022
- log2 fold change (vorinostat): inactive: 0.118
- log2 fold change (silmitasertib): inactive: -0.009
- log2 fold change [2]: inactive: 0.028
- log2 fold change (entospletinib): inactive: -0.003

Target: TLN2 (UniProt Q9Y4G6)
- log2 fold change [1]: inactive: 0.007
- log2 fold change (vorinostat): inactive: 0.036
- log2 fold change (silmitasertib): inactive: 0.002
- log2 fold change [2]: inactive: -0.003
- log2 fold change (entospletinib): inactive: 0.02

Target: TIMM8A (UniProt O60220)
- log2 fold change [1]: inactive: 0.05
- log2 fold change (vorinostat): inactive: 0.139
- log2 fold change (silmitasertib): inactive: -0.062
- log2 fold change [2]: inactive: 0.085
- log2 fold change (entospletinib): inactive: -0.014

Target: TLCD4 (UniProt Q96MV1)
- log2 fold change [1]: inactive: -0.045
- log2 fold change (vorinostat): inactive: 0.057
- log2 fold change (silmitasertib): inactive: -0.03
- log2 fold change [2]: inactive: 0.005
- log2 fold change (entospletinib): inactive: 0.019

Target: TMC1 (UniProt Q8TDI8)
- log2 fold change [1]: inactive: 0.015
- log2 fold change (vorinostat): inactive: -0.121
- log2 fold change (silmitasertib): inactive: 0.02
- log2 fold change [2]: inactive: -0.337
- log2 fold change (entospletinib): inactive: 0.012

Target: TJP1 (UniProt G3V1L9)
- log2 fold change [1]: inactive: -0.044
- log2 fold change (vorinostat): active: -0.484
- log2 fold change (silmitasertib): inactive: -0.061
- log2 fold change [2]: inactive: 0.127

Target: TMEM183B (UniProt Q1AE95)
- log2 fold change [1]: inactive: -0.138

Target: TMED2 (UniProt Q15363)
- log2 fold change [1]: inactive: -0.039
- log2 fold change (vorinostat): inactive: 0.112
- log2 fold change (silmitasertib): inactive: -0.028
- log2 fold change [2]: inactive: -0.043
- log2 fold change (entospletinib): inactive: -0.027

Target: TIMM17B (UniProt O60830)
- log2 fold change [1]: inactive: 0.053
- log2 fold change (vorinostat): inactive: -0.197
- log2 fold change (silmitasertib): inactive: 0.091
- log2 fold change [2]: inactive: -0.021
- log2 fold change (entospletinib): inactive: -0.03

Target: TIMM23 (UniProt O14925)
- log2 fold change [1]: inactive: -0.002
- log2 fold change (vorinostat): inactive: 0.069
- log2 fold change (silmitasertib): inactive: -0.016
- log2 fold change [2]: inactive: -0.012
- log2 fold change (entospletinib): inactive: 0.008

Target: TIMP1 (UniProt P01033)
- log2 fold change [1]: inactive: 0.015
- log2 fold change (vorinostat): inactive: 0.126
- log2 fold change (silmitasertib): inactive: 0.015
- log2 fold change [2]: inactive: 0.015
- log2 fold change (entospletinib): inactive: -0.021

Target: TMEM168 (UniProt Q9H0V1)
- log2 fold change [1]: inactive: -0.068
- log2 fold change (vorinostat): inactive: 0.079
- log2 fold change (silmitasertib): inactive: 0.013
- log2 fold change [2]: inactive: -0.035
- log2 fold change (entospletinib): inactive: -0.213

Target: TIAL1 isoform 2 (UniProt Q01085)
- log2 fold change [1]: inactive: -0.001
- log2 fold change (vorinostat): inactive: 0.041
- log2 fold change (silmitasertib): inactive: 0.023
- log2 fold change [2]: inactive: -0.049
- log2 fold change (entospletinib): inactive: 0.028

Target: TICAM2 isoform 2 (UniProt Q86XR7)
- log2 fold change [1]: inactive: -0.018
- log2 fold change (vorinostat): inactive: 0.087
- log2 fold change (silmitasertib): inactive: -0.017
- log2 fold change [2]: inactive: -0.047
- log2 fold change (entospletinib): inactive: 0.003

Target: TMEM167A (UniProt Q8TBQ9)
- log2 fold change [1]: inactive: -0.119
- log2 fold change (vorinostat): inactive: -0.077
- log2 fold change (silmitasertib): inactive: -0.01
- log2 fold change [2]: inactive: 0.037
- log2 fold change (entospletinib): inactive: 0.126

Target: TIPRL (UniProt O75663)
- log2 fold change [1]: inactive: -0.021
- log2 fold change (vorinostat): inactive: -0.045
- log2 fold change (silmitasertib): inactive: 0.009
- log2 fold change [2]: inactive: 0.01
- log2 fold change (entospletinib): inactive: 0

Target: TMEM181 (UniProt Q9P2C4)
- log2 fold change [1]: inactive: -0.271
- log2 fold change (vorinostat): inactive: 0.128
- log2 fold change (silmitasertib): inactive: 0.015
- log2 fold change [2]: inactive: -0.079
- log2 fold change (entospletinib): inactive: -0.025

Target: TGFBR3 (UniProt Q03167)
- log2 fold change [1]: inactive: -0.02
- log2 fold change (vorinostat): inactive: 0.061
- log2 fold change (silmitasertib): inactive: 0.002
- log2 fold change [2]: inactive: -0.065
- log2 fold change (entospletinib): inactive: -0.003

Target: TMEM164 (UniProt Q5U3C3)
- log2 fold change [1]: inactive: 0.098
- log2 fold change (vorinostat): inactive: 0.463
- log2 fold change (silmitasertib): inactive: -0.079
- log2 fold change [2]: inactive: 0.274
- log2 fold change (entospletinib): inactive: 0.059

Target: TMA16 (UniProt Q96EY4)
- log2 fold change [1]: inactive: -0.021
- log2 fold change (vorinostat): inactive: -0.253
- log2 fold change (silmitasertib): inactive: 0.026
- log2 fold change [2]: inactive: -0.014
- log2 fold change (entospletinib): inactive: 0.002

Target: THOC3 (UniProt Q96J01)
- log2 fold change [1]: inactive: 0.033
- log2 fold change (vorinostat): inactive: -0.185
- log2 fold change (silmitasertib): inactive: 0.031
- log2 fold change [2]: inactive: -0.017
- log2 fold change (entospletinib): inactive: -0.008

Target: TJP2 isoform 7 (UniProt Q9UDY2)
- log2 fold change [1]: inactive: -0.026
- log2 fold change (vorinostat): inactive: -0.154
- log2 fold change (silmitasertib): inactive: -0.021
- log2 fold change [2]: inactive: -0.003
- log2 fold change (entospletinib): inactive: -0.023
